Source: patent US20200200751A1
These are yes or no findings as the source states them, for the method shown. Some results given as binding are weak or reduced against the parent protein; the word gives no strength. Sequences can lack the tags named with a protein.

Target: T1, human progastrin (full length, recombinant, produced in E. coli, tag removed) (human)
T1 sequence: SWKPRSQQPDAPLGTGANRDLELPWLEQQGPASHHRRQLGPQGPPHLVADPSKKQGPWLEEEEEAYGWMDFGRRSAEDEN
Experiment: epitope mapping (details not given)

B1: mAb19 (hybridoma 1B3B4F11) (antibody, V domains shown)
VH: DVQLQESGPGLVKPSQSLSLTCTVTGYSITSDYAWNWIRQFPGNKLEWMGYISFSGYTSYNPSLKSRISVTRDTSRNQFFLQLTSVTTEDTATYYCAREVNYGDSYHFDYWGQGTIVTVSS
VL: QLALTQSSSASFSLGASAKLTCTLSSQHRTYTIEWYQQQSLKPPKYVMEVKKDGSHSTGHGIPDRFSGSSSGADRYLSISNIQPEDEAIYICGVGDAIKGQSVFVFGGGTKVTVL
With B1 the binding was “binds”.
